# Assay results reported in the supplement of paper PMC4256282, “Profound Activity of the Anti-cancer Drug Bortezomib against Echinococcus multilocularis Metacestodes Identifies the Proteasome as a Novel Drug Target for Cestodes” (PLoS Neglected Tropical Diseases, 2014).
# Where a name gives a salt, the structure may show the parent alone. The list shows a part of the results. Repeats are few or missing, and single values can be far off.
# Test system: Echinococcus multilocularis metacestodes
# Experiment: vesicle damage (PGI release) relative to positive control DB1127 at 20 µM, DMSO subtracted; higher = more parasite damage
# Details: treatment time 5 days
# Method: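 In vitro-cultured E. multilocularis metacestode vesicles (isolate H95, 2-4 mm) were treated in singlets with each drug of the Selleck FDA-approved library (426 drugs) at 20 µM for 5 days at 37°C. Damage was read as phosphoglucose isomerase (PGI) release into the medium, measured as the increase in absorbance at 340 nm. Activity was expressed as % of the positive control DB1127 (20 µM) after subtracting the DMSO control; a hit was defined as ≥50% of DB1127.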
row,SMILES,vesicle damage
1,NCCCCCC(=O)O [Aminocaproic acid],-1.22%
2,CN1CC2c3ccccc3Oc3ccc(Cl)cc3C2C1 (stereo not given) [Asenapine maleate],7.97%
3,CC[C@H]1OC(=O)[C@H](C)[C@@H](O[C@H]2C[C@@](C)(OC)[C@@H](O)[C@H](C)O2)[C@H](C)[C@@H](O[C@@H]2O[C@H](C)C[C@H](N(C)C)[C@H]2O)[C@](C)(OC)C[C@@H](C)C(=O)[C@H](C)[C@@H](O)[C@]1(C)O [Clarithromycin],1.01%
4,CC(=O)OCC(=O)[C@@]1(O)CC[C@H]2[C@@H]3CCC4=CC(=O)C=C[C@]4(C)[C@H]3[C@@H](O)C[C@@]21C [Prednisolone acetate],2.52%
5,CCCCCCCCCC(=O)N[C@@H](Cc1c[nH]c2ccccc12)C(=O)N[C@H](CC(N)=O)C(=O)N[C@@H](CC(=O)O)C(=O)N[C@@H]1C(=O)NCC(=O)N[C@@H](CCCN)C(=O)N[C@@H](CC(=O)O)C(=O)N[C@H](C)C(=O)N[C@@H](CC(=O)O)C(=O)NCC(=O)N[C@H](CO)C(=O)N[C@@H]([C@H](C)CC(=O)O)C(=O)N[C@@H](CC(=O)c2ccccc2N)C(=O)O[C@@H]1C [Daptomycin],-4.85%
6,CC(C)C[C@H](NC(=O)[C@H](Cc1ccccc1)NC(=O)c1cnccn1)B(O)O [Bortezomib],141%
7,COC(=O)Nc1nc2cc(Sc3ccccc3)ccc2[nH]1 [Fenbendazole],7.35%
8,CC(NCCc1ccc(O)cc1)C(O)c1ccc(O)cc1 (stereo not given) [Ritodrine hydrochloride],-0.86%
9,S=c1[nH]cnc2nc[nH]c12 [Mercaptopurine],0.998%
10,Oc1ccc(/C=C/c2cc(O)cc(O)c2)cc1 [Resveratrol],-3.14%
11,N[C@@H]1CCCC[C@H]1N.O=C([O-])C(=O)[O-].[Pt+2] [Eloxatin],10.4%
12,CNC(=C[N+](=O)[O-])NCCSCc1csc(CN(C)C)n1 [Nizatidine],-12.1%
13,CCCC1O[C@@H]2C[C@H]3[C@@H]4CCC5=CC(=O)C=C[C@]5(C)[C@H]4[C@@H](O)C[C@]3(C)[C@]2(C(=O)CO)O1 (stereo not given in full) [Budesonide],2.83%
14,Nc1[nH]cnc2ncnc1-2 [Adenine hydrochloride],-1.48%
15,Nc1cc(N2CCCCC2)nc(N)[n+]1[O-] [Minoxidil],2.86%
16,CN1CCC[C@@H]1CCO[C@](C)(c1ccccc1)c1ccc(Cl)cc1 [Clemastine fumarate],0.292%
17,CC(C)Cc1ccc(C(C)C(=O)O)cc1 (stereo not given) [Ibuprofen],-1.11%
18,Cc1[nH]c(=O)c(C#N)cc1-c1ccncc1 [Milrinone],1.79%
19,CO[C@H]1/C=C/O[C@@]2(C)Oc3c(C)c(O)c4c(c3C2=O)C2=NC3(CCN(CC(C)C)CC3)NC2=C(NC(=O)/C(C)=C\C=C\[C@H](C)[C@H](O)[C@@H](C)[C@@H](O)[C@@H](C)[C@H](OC(C)=O)[C@@H]1C)C4=O [Rifabutin],-1.04%
20,COc1ccc2[nH]c([S+]([O-])Cc3ncc(C)c(OC)c3C)nc2c1 (stereo not given) [Omeprazole],-0.281%

# Copied from the list.
# In vesicle damage, `Nc1cc(N2CCCCC2)nc(N)[n+]1[O-]` [Minoxidil] has 2.86%
# In vesicle damage, `CCCC1O[C@@H]2C[C@H]3[C@@H]4CCC5=CC(=O)C=C[C@]5(C)[C@H]4[C@@H](O)C[C@]3(C)[C@]2(C(=O)CO)O1` (stereo not given in full) [Budesonide] has 2.83%

# Next part.

row,SMILES,vesicle damage
1,NC(=O)N/N=C/c1ccc([N+](=O)[O-])o1 [Nitrofurazone],-0.799%
2,Nc1cccc2c1CN(C1CCC(=O)NC1=O)C2=O (stereo not given) [Lenalidomide],5.6%
3,CN1C2CCCC1CC(NC(=O)c1nn(C)c3ccccc13)C2 (stereo not given) [Granisetron Hydrochloride],0.95%
4,O=C(CCCN1CCC(O)(c2ccc(Cl)cc2)CC1)c1ccc(F)cc1 [Haloperidol],1.25%
5,CCN[C@H]1C[C@H](C)S(=O)(=O)c2sc(S(N)(=O)=O)cc21 [Dorzolamide HCL],-1.6%
6,C[C@]12CC[C@@H]3c4ccc(O)cc4C[C@@H](CCCCCCCCC[S+]([O-])CCCC(F)(F)C(F)(F)F)[C@H]3[C@@H]1CC[C@@H]2O (stereo not given in full) [Fulvestrant],-0.361%
7,CC[C@@]1(O)C(=O)OCc2c1cc1n(c2=O)Cc2cc3c(CN(C)C)c(O)ccc3nc2-1 [Topotecan Hydrochloride],1.75%
8,CC(=O)NC[C@H]1CN(c2ccc(N3CCOCC3)c(F)c2)C(=O)O1 [Linezolid],-2.39%
9,CC(=O)[C@]1(O)Cc2c(O)c3c(c(O)c2[C@@H](O[C@H]2C[C@H](N)[C@H](O)[C@H](C)O2)C1)C(=O)c1ccccc1C3=O [Idarubicin HCl],6.77%
10,OC(Cn1cncn1)(Cn1cncn1)c1ccc(F)cc1F [Fluconazole],-1.35%
11,CC[N+](CC)(CC)CCOc1cccc(OCC[N+](CC)(CC)CC)c1OCC[N+](CC)(CC)CC [Gallamine triethiodide],2.67%
12,CO[C@H]1O[C@@H]2O[C@@]3(C)CC[C@H]4[C@H](C)CC[C@@H]([C@H]1C)[C@@]24OO3 [Artemether],-0.529%
13,CCCCNc1ccc(C(=O)OCCN(C)C)cc1 [Tetracaine hydrochloride],1.75%
14,CN(C)CCc1c[nH]c2ccc(Cn3cncn3)cc12 [Rizatriptan Benzoate],-3.16%
15,COc1cccc2c1C(=O)c1c(O)c3c(c(O)c1C2=O)C[C@@](O)(C(=O)CO)C[C@@H]3O[C@H]1C[C@H](N)[C@H](O)[C@H](C)O1 [Adriamycin],-0.342%
16,C[C@@H](CN1CC(=O)NC(=O)C1)N1CC(=O)NC(=O)C1 [Dexrazoxane Hydrochloride],-0.627%
17,Nc1ncnc2c1ncn2[C@@H]1O[C@H](CO)[C@@H](O)[C@@H]1O [Vidarabine],0%
18,Cn1c(CNc2ccc(C(=N)N)cc2)nc2cc(C(=O)N(CCC(=O)O)c3ccccn3)ccc21,-0.928%
19,O=c1[nH]cnc2[nH]ncc12 [Allopurinol sodium],-1.08%
20,N=C(N)NC(=O)c1nc(Cl)c(N)nc1N [Amiloride hydrochloride],-13.7%
